Out of some 1,200 compounds screened, about 290 (24%) were called active. About 3% were inconclusive and are not listed.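 Rule for the calls: active = compounds lowering cell viability signal with fitted half-maximal concentration at most ten times their highest tested concentration; inconclusive = flat fit with 30 to 70% signal loss, or poor fit; inactive = the rest.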 The entries are a selection whose mix differs from that of the whole data set. Entries with a potency or affinity are not part of this list.
Experiment: cytotoxicity in HEK293T cells – cell-based, CellTiter-Glo luminescence, cherry-picks, cytotoxicity control for LMP1 NF-kB inhibitor project, dose response (AID 504861)
Conditions: HEK293T viability, CellTiter-Glo ATP luminescence, 48 h; at 26 µM (top of the series)

SMILES | activity change, negative = cytotoxicity
O=C(NC1=NCCS1)c1cc2ccccc2o1 | inactive: -0.619%
CCOc1ccc(N(C(C)C(=O)N2CCCCCC2)S(C)(=O)=O)cc1 (stereo not drawn) | inactive: 3.86%
O=C(N1CCOCC1)N1CCN(S(=O)(=O)c2ccc(Cl)cc2)C1 | inactive: 9.71%
COC(=O)[C@@]1(C)[C@H]2C(=O)N(Cc3ccccc3)C(=O)[C@H]2[C@H]2CN=C(SCc3ccc(Cl)cc3)N21 | inactive: -0.663%
O=[N+]([O-])c1ccc(Cl)c(S(=O)(=O)NCC2CCCO2)c1 (stereo not drawn) | inactive: 6.06%
O=C(Nc1ccc2c(c1)C(=O)OC2)c1ccc(C(F)(F)F)cc1 | inactive: 0.862%
CCOc1ccc(S(=O)(=O)N2CCC(C(=O)NCCc3ccc(S(N)(=O)=O)cc3)CC2)cc1 | inactive: 9.59%
CC1CN(c2cc(=O)n(-c3ccccc3)c(=O)[nH]2)CC(C)O1 (stereo not drawn) | inactive: 5.49%
Cc1ccc(CN2C(=O)CCC2C(=O)NCCCN2CCC(C)CC2)cc1 (stereo not drawn) | inactive: 9.36%
CC1(C)CN(Cc2ccccc2)C(=O)[C@H]1CC(=O)Nc1ccccc1 | inactive: 4.38%
COc1ccc(S(=O)(=O)N2CCN(CC(=O)Nc3ccc(C)c(F)c3)CC2)cc1 | inactive: 3.08%
O=S(=O)(NC1c2cccc3cccc(c23)C1Sc1ncccn1)c1ccccc1 (stereo not drawn) | inactive: 7.26%
COc1ccc(N2Cc3cccc(C(=O)NC(C)CCc4ccco4)c3C2=O)cc1 (stereo not drawn) | inactive: 3.59%
Cc1cccc(Nc2nc(Cl)ncc2F)c1C | inactive: 10.1%
COc1ccc(S(=O)(=O)NCCc2csc(-c3cccnc3)n2)cc1 | inactive: 1.59%
C=CCN1CCc2cc(O)c(O)cc2C(c2ccccc2)C1 (stereo not drawn) | inactive: 7.91%
Cn1c(=O)c2c(ncn2CC(=O)Nc2cc(S(=O)(=O)N3CCCCC3)ccc2O)n(C)c1=O | inactive: 5.43%
Cc1ccc(N2C(=O)c3ccccc3C2Nc2cccnc2)nc1 (stereo not drawn) | inactive: 10.1%
COc1ccc(CCNC(=O)CSc2ccsc2[N+](=O)[O-])cc1OC | inactive: 2.93%
O=C(Cn1cc(CNC(=O)C2CCCCC2)nn1)Nc1cc(C(F)(F)F)ccc1Cl | inactive: 4.05%
O=C(NCCOc1ccccc1)c1ccc2c(c1)OCO2 | inactive: -2.16%
COc1cc(OC)cc(-c2cc3nc(C)c(CCC(=O)O)c(C)n3n2)c1 | inactive: 4.26%
O=C(CN1C(=O)c2ccccc2C1=O)NNC1=NS(=O)(=O)c2ccccc21 | inactive: 6.87%
CN(Cc1ccc(F)cc1)C(=O)CN1CCN(S(=O)(=O)c2ccc3c(c2)OCCCO3)CC1 | inactive: 9.73%

SMILES | activity change, negative = cytotoxicity
CC1CC(C)CN(S(=O)(=O)c2ccc(NC(=O)CCN3C(=O)C4CC=CCC4C3=O)cc2)C1 (stereo not drawn) | inactive: -5.26%
COc1ccccc1C(=O)Nc1c[nH]c(=O)[nH]c1=O | inactive: 6.18%
CCCSc1nc2cc(S(=O)(=O)N3CCOCC3)ccc2n1CC | inactive: 2.27%
COC(=O)c1cccc(COC(=O)c2ccccc2NC(=O)c2ccco2)c1 | inactive: 17.6%
Cc1nn(CCCC(=O)Nc2cccnc2Cl)c(C)c1[N+](=O)[O-] | inactive: 1.66%
CC(CNC1CCCCC1)OC(=O)c1ccccc1 (stereo not drawn) | inactive: 12.2%
COc1ccc2[nH]c3c(=O)n(CCCCC(=O)N4CCC(C(N)=O)CC4)c(=S)[nH]c3c2c1 | inactive: 10.3%
O=C(COC(=O)c1ccc(S(=O)(=O)NCc2ccco2)cc1)Nc1ccc(Cl)cn1 | inactive: 7.6%
COc1ccc(NC(=O)C[C@H]2C(=O)N(CCc3ccccc3)C[C@@H]2c2ccc(OC)cc2)cc1 | inactive: 4.1%
COCCN1CSC(=S)N(Cc2ccco2)C1 | inactive: 1.64%
Cc1ccc(C(=O)Nc2cccc(C(F)(F)F)c2)cc1Nc1ncnc2nc[nH]c12 | inactive: 12.7%
CC(CCc1ccco1)N(C)S(=O)(=O)c1csc(C(N)=O)c1 (stereo not drawn) | inactive: 3.06%
CCCC(C)NC(C)C(=O)NC1CCCC1 (stereo not drawn) | inactive: 8.19%
COC(=O)C(NS(=O)(=O)c1ccc(N2CCCC2=O)cc1)c1ccccc1 (stereo not drawn) | inactive: 11.8%
COC(=O)c1ccccc1NC(=O)CC(=O)Nc1ccccc1C(=O)OC | inactive: 9.44%
CCc1nnc(NC(=O)c2ccc(S(=O)(=O)N3CCOCC3)cc2)s1 | inactive: 5.76%
Cc1ccc(NC(=O)NNS(=O)(=O)c2ccc(Br)cc2)cc1 | inactive: 13%
CCOC(=O)CCSc1nc(N2CCOCC2)c2c(c1C#N)CC(C)(C)OC2 | inactive: 9.24%
C[C@@H]1CN([C@@H](C)CO)C(=O)c2cc(NC(=O)Nc3ccccc3)ccc2O[C@H]1CN(C)C(=O)Nc1cccc2ccccc12 | inactive: 16.4%
CCCCCC(=O)NC(=S)Nc1ccc(Br)cc1C | inactive: 5.46%
O=C(O)c1ccc(C=NN=C2c3ccccc3-c3ccccc32)cc1 | inactive: -3.57%
CSCCC(NC(=O)c1ccco1)C(=O)OCC(=O)Nc1ncc(Cl)c(C)c1Cl (stereo not drawn) | inactive: 0.613%
Nc1cc2ccncc2c2ccccc12 | inactive: -17.4%
O=C(NCc1ccccc1Cl)C1CCCN1S(=O)(=O)c1ccc(F)cc1 (stereo not drawn) | inactive: 3.76%

SMILES | activity change, negative = cytotoxicity
COc1ccc(S(=O)(=O)N2CCCCCC2)cc1C(=O)OCc1cccc(OC)c1OC | inactive: -7.38%
CSc1ccccc1OCc1cc(C(=O)N2CCC[C@H]2C(N)=O)no1 | inactive: 8.42%
COc1ccccc1N1CCN(CCCNC(=O)C2CCCN(c3ncnc4c3nc3n4CCCCC3)C2)CC1 (stereo not drawn) | inactive: -8.21%
CCOc1cc(C(=O)OC(C)C(=O)Nc2ncc(Cl)cc2Cl)ccc1OCC(=O)N1CCOCC1 (stereo not drawn) | inactive: 21.9%
CCSc1nnc(NC(=O)CCn2c(=O)oc3ccccc32)s1 | inactive: 7.93%
COC(=O)c1cc2n(n1)CCN(Cc1ccccc1Cl)C2=O | inactive: 20.5%
CC(C)[C@H](N[C@@H](C)c1ccccc1)c1c(O)ccc2ccccc12 | inactive: 0.164%
COC(=O)c1ccccc1NC(=O)CSc1nnnn1C | inactive: 7.41%
CN(C)CCCC1(c2ccc(F)cc2)OCc2cc(C#N)ccc21 (stereo not drawn) | inactive: 6.16%
Cc1ccc(C2=C/C(=C\c3cccnc3)C(=O)O2)cc1 | inactive: 6.69%
S=C1SCN(Cc2ccccc2)CN1Cc1ccco1 | inactive: 4.65%
C/C(=N\Nc1ccc(C(F)(F)F)cc1[N+](=O)[O-])C(C)C | inactive: 0.008%
Nc1nc(N)nc(-c2cc(Cl)ccc2Cl)n1 | inactive: 1.65%
COc1ccc(S(=O)(=O)N2CCOCC2)cc1NC(=O)COC(=O)CCS(=O)(=O)c1ccc(C)cc1 | inactive: 4.64%
C=CCn1c(C)c(C(C)=O)c(N2CCN(C(c3ccccc3)c3ccccc3)CC2)nc1=S | inactive: -5.9%
O=C(Nc1cc(S(=O)(=O)N2CCOCC2)ccc1Cl)c1ccncc1 | inactive: -2.4%
COc1cccc(C2Nc3ccc4ccccc4c3C3=C2C(=O)CC(C)(C)C3)c1OCC(=O)O (stereo not drawn) | inactive: 5.8%
CCON1C(=O)C2(CCCCC2)C(=O)C12C=CCCC2 (stereo not drawn) | inactive: 7.76%
CCOC(=O)C1CCN(S(=O)(=O)Cc2ccccc2)C1=O (stereo not drawn) | inactive: 4.6%
COc1cc(/C=C2\SC(=S)N(NC(=O)c3ccncc3)C2=O)ccc1O | inactive: 2.41%
CCN(C(=O)c1cc(OC)c(OC)c(OC)c1)C1CCCCC1 | inactive: 11.5%
CN(C)CCC(c1ccccc1)c1ccccn1 (stereo not drawn) | inactive: 6.5%
CC(C)NCC(O)COc1cccc2ccccc12 (stereo not drawn) | inactive: 10.2%
O=C1CCc2cc(OCCCCc3nnnn3C3CCCCC3)ccc2N1 | inactive: 9.31%

SMILES | activity change, negative = cytotoxicity
COC(=O)C1=C(C(=O)c2ccccc2)C(c2ccccc2)n2nnnc2N1 (stereo not drawn) | inactive: 5.26%
CCN(CC(=O)NCc1ccc(F)cc1)CC(=O)Nc1cc(S(=O)(=O)N(C)C)ccc1C | inactive: 4.11%
CCOC(=O)c1c(-n2cccc2)sc2c1CCCC2=O | inactive: 7.85%
COC(=O)c1sc(NC(=O)c2ccc(OC)cc2OC)nc1C | inactive: 1.22%
Cc1cccc(S(=O)(=O)N2CCCc3ccccc32)c1 | inactive: 0.425%
COC(=O)c1c(O)ccc(Oc2ccccc2)c1C(=O)OC | inactive: 5.13%
COC(=O)CSc1ncnc2c1sc1nc3c(cc12)COC(C)(C)C3 | inactive: 6.22%
CC1CCN(CCOc2ccc(C(=O)c3ccccc3)cc2)CC1 | inactive: -5.16%
COC(=O)CCNc1ccc2c(c1)OCCO2 | inactive: -7.17%
O=C(COC(=O)c1cc2ccccc2cc1O)NCc1ccccc1 | inactive: 4.34%
COC(=O)c1[nH]c2cccc(C)c2c1NC(=O)CN1CCCc2ccccc21 | inactive: -5.56%
Cc1ccccc1-n1nc(C)c2cc(C(=O)NC3CC3)sc21 | inactive: 0.234%
COc1ccc(/C(CC2OC(=O)c3ccccc32)=N\NC(N)=O)cc1 (stereo not drawn) | inactive: 1.16%
O=c1[nH]c(Nc2nc3ccccc3o2)nc2c1CCCC2 | inactive: 2.83%
COc1ccc(CNC(=O)COC(=O)[C@@H]2CCCN2C(=O)c2cccs2)cc1 | inactive: -0.031%
O=C1c2ccccc2C(O)N1Cc1ccccc1 (stereo not drawn) | inactive: -0.497%
CCCCCC(=O)N1CCN(c2ccc(C(C)=O)cc2F)CC1 | inactive: -4.39%
O=C1CCCCC1Sc1nnc(-c2ccc3c(c2)OCO3)o1 (stereo not drawn) | inactive: 6.75%
O=C(CN1C(=O)c2ccccc2S1(=O)=O)Nc1ncc(Cl)cc1Cl | inactive: 6.24%
COc1ccc(NC(=O)COC(=O)/C=C/c2ccc(OC)c(S(=O)(=O)N3CCOCC3)c2)cc1 | inactive: 27.4%
CCOc1ccc(NC(=O)CCc2nnc3ccc(N4CCC5(CC4)OCCO5)nn23)cc1 | inactive: 11.9%

Molecules shown so far that contain a COOH group (three):
SMILES | activity change, negative = cytotoxicity
COc1cc(OC)cc(-c2cc3nc(C)c(CCC(=O)O)c(C)n3n2)c1 | inactive: 4.26%
O=C(O)c1ccc(C=NN=C2c3ccccc3-c3ccccc32)cc1 | inactive: -3.57%
COc1cccc(C2Nc3ccc4ccccc4c3C3=C2C(=O)CC(C)(C)C3)c1OCC(=O)O (stereo not drawn) | inactive: 5.8%

— PubChem BioAssay AID504861 (Broad Institute, 2011)
